# Reference: PubChem BioAssay AID1671190 (National Center for Advancing Translational Sciences (NCATS), 2021)
# Chains of the proteins cited; added tags and fusions are not shown. Lines headed by an entry give the natural chain unless they say otherwise; changes in a name come on top.
# UniProt P18054: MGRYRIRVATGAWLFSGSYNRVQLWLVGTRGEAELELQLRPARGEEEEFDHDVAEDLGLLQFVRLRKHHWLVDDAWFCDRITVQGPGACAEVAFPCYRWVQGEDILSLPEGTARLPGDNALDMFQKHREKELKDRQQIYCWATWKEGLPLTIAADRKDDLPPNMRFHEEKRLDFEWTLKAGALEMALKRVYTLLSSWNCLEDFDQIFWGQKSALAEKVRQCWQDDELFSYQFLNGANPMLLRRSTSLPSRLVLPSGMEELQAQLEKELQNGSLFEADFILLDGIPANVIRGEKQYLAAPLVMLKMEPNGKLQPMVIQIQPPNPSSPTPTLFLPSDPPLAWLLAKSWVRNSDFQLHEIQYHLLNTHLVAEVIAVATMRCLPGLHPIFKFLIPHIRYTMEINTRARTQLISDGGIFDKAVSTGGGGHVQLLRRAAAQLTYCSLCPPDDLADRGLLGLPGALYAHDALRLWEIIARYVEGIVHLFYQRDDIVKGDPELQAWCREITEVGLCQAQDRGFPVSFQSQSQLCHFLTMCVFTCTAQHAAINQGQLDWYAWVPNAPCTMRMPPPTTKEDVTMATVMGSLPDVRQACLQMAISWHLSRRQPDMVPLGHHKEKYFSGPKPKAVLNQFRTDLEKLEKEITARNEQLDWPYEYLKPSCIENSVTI
# About 6,100 (1.1%) of roughly 580,000 compounds were called active. Inconclusive means that the source gave no clear call. Such entries were picked first, then a sample of the others. Calls come from the whole dose curve; as a rule, active = well fitted inhibition curve with a large enough effect; inconclusive = small, poorly fitted or top-dose-only effect, or another doubt; inactive = no such curve, though single readings can be large or run the other way. A potency beside an inconclusive call is a rough fit, not a confirmed value.
# Target: Polyunsaturated fatty acid lipoxygenase ALOX12 (Homo sapiens) (UniProt P18054)
# Test: Primary qHTS assay for inhibitors of human arachidonate 12S-lipoxygenase (ALOX12): Round 2
# Details: purified 12hLO, xylenol orange hydroperoxide absorbance; series mostly up to 108 µM
# Outline: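 Purified human 12hLO at 150 nM in 25 mM Hepes, 0.01% Triton X-100, pH 7.0, preincubated 15 min at room temperature with compound. Reaction started with 40 uM arachidonic acid, 30 min at room temperature. Hydroperoxide measured by Fe-xylenol orange, 573/405 nm absorbance ratio.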
# Potency is the fitted concentration of half-maximal effect.
row,Structure (SMILES),Potency
1,CCc1nnc(NC(=O)C(NS(=O)(=O)c2ccccc2)C(C)C)s1 (stereo not drawn),"inconclusive: 35.5 µM [inhibitor, single point]"
2,CC(C)(C)c1ccc(/C=N/c2sc3c(c2C#N)CCCC3)cc1,active: 28.2 µM
3,CC(C)Cn1cnc2c(Sc3c([N+](=O)[O-])ncn3C)nc(N)nc21,"inconclusive: 89.1 µM [inhibitor, single point]"
4,c1ccc2c(c1)OCCOCCOc1ccccc1OCCO2,inactive
5,Cn1c(=O)[nH]c(=O)c2c1nc(N1CCCC1)n2CCCSc1nc2ccccc2o1,inactive
6,N#CC(C#N)=C1C=CC=CN1/C(=C\c1ccco1)C(=O)c1ccc(-c2ccccc2)cc1,"inconclusive: 12.6 µM [inhibitor, full curve, poor fit]"
7,N#Cc1cccc(NC(=O)CCC(=O)c2ccc3c(c2)OCCCO3)c1,"inconclusive: 11.2 µM [inhibitor, full curve]"
8,CCCCOC(=O)C(C)Nc1n[nH]c(=S)[nH]c1=O (stereo not drawn),"inconclusive: 56.2 µM [inhibitor, partial curve, poor fit]"
9,CCN1CCC[C@H]1CNC(=O)c1c(OC)ccc(Br)c1OC,inactive
10,CCC(=O)N1c2ccccc2NC2=C(C(=O)CC(c3ccco3)C2)C1c1ccco1 (stereo not drawn),inactive
11,COc1cc(C)c(NC(=S)Nc2cccc(Cl)c2)cc1OC,"inconclusive: 22.4 µM [inhibitor, full curve, poor fit]"
12,Cc1[nH]c2ccc(F)cc2c1CCNC(=S)NC(C)(C)C,"inconclusive: 89.1 µM [inhibitor, partial curve, poor fit]"
13,O=C(O)c1ccc(S(=O)(=O)/N=C2\C=C(Nc3ccccc3F)C(=O)c3ccccc32)cc1,"inconclusive: 39.8 µM [inhibitor, partial curve, poor fit]"
14,COc1cc(-c2noc(-c3ccc(S(=O)(=O)NC4CC4)o3)n2)ccc1OC(C)C,"inconclusive: 141 µM [inhibitor, single point]"
15,COc1ccc(-c2cc(=O)c3cc(OC(=O)C(C)(C)C)ccc3o2)cc1,inactive
16,COc1cc(C2CC(=O)c3c([nH]c(C(=O)OC4CCCCC4)c3C)C2)cc(OC)c1OC (stereo not drawn),inactive
17,COc1ccc(NC(=O)C(NC(=O)Cc2cccs2)c2ccc(C)cc2)cc1 (stereo not drawn),"inconclusive: 5.01 µM [inhibitor, full curve, poor fit]"
18,CCN(CC)c1ccc(N=Cc2c(C)[nH]c3ccccc23)cc1,"inconclusive: 50.1 µM [inhibitor, partial curve, poor fit]"
19,COc1ccc(C(=O)[C@H]2[C@H]3C(=O)N(c4ccc(OC(C)=O)cc4)C(=O)[C@H]3C3C=CC=NN32)cc1 (stereo partly drawn),inactive
20,Cc1cccc(NC(=S)NC2CC3C=CC2C3)c1 (stereo not drawn),"inconclusive: 89.1 µM [inhibitor, partial curve, poor fit]"
21,CCOC(=O)c1sc(NC(=O)c2sccc2C)cc1C,inactive
22,CCOC(=O)CSC1=C(C#N)C(c2ccccc2OCC)C(C#N)C(=O)N1 (stereo not drawn),"inconclusive: 1 µM [inhibitor, full curve, poor fit]"

row,Structure (SMILES),Potency
1,CCc1nnc(NS(=O)(=O)c2ccc(N/C=C\C(=O)c3cccc4ccccc34)cc2)s1,"inconclusive: 79.4 µM [inhibitor, partial curve, poor fit]"
2,CCn1cc(CN2CCN(C(=O)c3ccsc3)CC2)ccc1=O,inactive
3,COC(=O)c1c[nH]c(=O)cn1,"inconclusive: 2.82 µM [inhibitor, full curve]"
4,O=C(CSc1nc2ccccc2c(=O)n1Cc1ccccc1)Nc1ccc(Br)cc1C(=O)O,"inconclusive: 44.7 µM [inhibitor, partial curve, poor fit]"
5,C[n+]1ccccc1N1CCN(c2ccccc2Cl)CC1,"inconclusive: 56.2 µM [inhibitor, partial curve, poor fit]"
6,Cc1ccccc1CS(=O)(=O)N1CCC(C(=O)Nc2c(C)n(C)n(-c3ccccc3)c2=O)CC1,inactive
7,Cc1ccccc1NC1=NCC(c2ccc([N+](=O)[O-])cc2)S1 (stereo not drawn),inactive
8,CC(C)C(NC(=O)c1ccccc1I)c1ccc(F)cc1 (stereo not drawn),"inconclusive: 89.1 µM [inhibitor, single point]"
9,CCc1nc(SCC(=O)Nc2ccc(N(C)C)cc2)c2ccccc2n1,inactive
10,COC(=O)[C@]1(Sc2ccc(OC)cc2)CC(=O)N[C@@H]1c1ccccc1,"inconclusive: 44.7 µM [inhibitor, partial curve, poor fit]"
11,O=C(Cn1cnc2scc(-c3ccc(F)cc3)c2c1=O)NCC(c1ccco1)N1CCCC1 (stereo not drawn),inactive
12,CC(Oc1cccc(Br)c1)C(=O)NNC(=O)c1ccc2c(c1)NC(=O)CCS2 (stereo not drawn),active: 44.7 µM
13,O=C(C1CCCN(c2cnn(Cc3ccccc3)c(=O)c2)C1)N1CCCN(c2ncccn2)CC1 (stereo not drawn),inactive
14,Cc1csc2nc(COC(=O)c3ccccc3NC(=O)c3ccc(F)cc3)cc(=O)n12,"inconclusive: 44.7 µM [inhibitor, partial curve, poor fit]"
15,CSCCC(NC(=O)c1ccco1)C(=O)NCC(C)(C)N1CCOCC1 (stereo not drawn),"inconclusive: 112 µM [inhibitor, single point]"
16,Cc1ccc(S(=O)(=O)NC(=O)C2(C)CCN2C(=O)c2cccc(F)c2)cc1 (stereo not drawn),active: 35.5 µM
17,Cc1ccc(CNc2oc(-c3ccc(F)cc3)nc2C#N)cc1,"inconclusive: 31.6 µM [inhibitor, partial curve, poor fit]"
18,CC1(C)CC(=O)C2=C(C1)Nc1ccccc1NC2,inactive
19,Cn1c(=O)c2ncn(CC(=O)NCCOc3ccc(C(C)(C)C)cc3)c2n(C)c1=O,"inconclusive: 2.51 µM [inhibitor, full curve, poor fit]"
20,CC(=O)NC1(C)CCCN(Cc2cc(-c3c(C)noc3C)cs2)C1 (stereo not drawn),"inconclusive: 31.6 µM [inhibitor, full curve]"
21,CC(C)C[C@@H](CN1CCC[C@H]1CN1C(=O)C(=O)NC[C@@H]1Cc1ccc(O)cc1)N1C[C@H](Cc2ccccc2)N(CCc2ccccc2)C(=O)C1=O,"inconclusive: 79.4 µM [inhibitor, single point]"

# 2 consecutive records out of the list so far, quoted:
row,Structure (SMILES),Potency
20,Cc1cccc(NC(=S)NC2CC3C=CC2C3)c1 (stereo not drawn),"inconclusive: 89.1 µM [inhibitor, partial curve, poor fit]"
21,CCOC(=O)c1sc(NC(=O)c2sccc2C)cc1C,inactive
